{"source": "paper PMC3460870", "molecular_target": "T1, endogenous Vangl2 (human (endogenous in SKBR7)) (UniProt Q9ULK5)", "T1 sequence": "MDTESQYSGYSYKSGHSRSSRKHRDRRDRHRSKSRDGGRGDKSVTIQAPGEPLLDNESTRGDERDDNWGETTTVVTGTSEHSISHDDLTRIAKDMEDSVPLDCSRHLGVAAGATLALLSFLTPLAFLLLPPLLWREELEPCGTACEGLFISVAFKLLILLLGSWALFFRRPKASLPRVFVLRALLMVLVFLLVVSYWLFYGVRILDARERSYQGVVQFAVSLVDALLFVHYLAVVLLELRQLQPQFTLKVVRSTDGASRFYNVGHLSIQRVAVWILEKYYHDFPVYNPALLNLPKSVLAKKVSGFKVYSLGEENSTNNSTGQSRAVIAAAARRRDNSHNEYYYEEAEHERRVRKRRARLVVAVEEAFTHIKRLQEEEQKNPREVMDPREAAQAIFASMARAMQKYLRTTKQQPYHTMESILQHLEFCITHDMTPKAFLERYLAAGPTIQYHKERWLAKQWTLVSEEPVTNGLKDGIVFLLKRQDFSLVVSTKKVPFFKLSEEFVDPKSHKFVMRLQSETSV", "assay": "affinity purification with mass spectrometry; 2G4 mAb immunoprecipitation of endogenous Vangl2 from pre-cleared SKBR7 cell extracts (lysis buffer 150 mM NaCl, 20 mM Hepes, 5 mM EDTA, 1% NP40); band at about 60 kD excised, in-gel trypsin digestion, LC and Orbitrap; repeated with SKBR7 cells treated with shLuc or shVangl2", "note": "These are yes or no findings as the source states them, for the method shown. Binding seen in cells or lysates may run through a third protein. These calls come from enrichment with a bait or labelling near it, and not all partners need be listed."}
{"binder": "endogenous Vangl1 (protein, UniProt Q8TAA9 1-524) MDTESTYSGYSYYSSHSKKSHRQGERTRERHKSPRNKDGRGSEKSVTIQPPTGEPLLGNDSTRTEEVQDDNWGETTTAITGTSEHSISQEDIARISKDMEDSVGLDCKRYLGLTVASFLGLLVFLTPIAFILLPPILWRDELEPCGTICEGLFISMAFKLLILLIGTWALFFRKRRADMPRVFVFRALLLVLIFLFVVSYWLFYGVRILDSRDRNYQGIVQYAVSLVDALLFIHYLAIVLLELRQLQPMFTLQVVRSTDGESRFYSLGHLSIQRAALVVLENYYKDFTIYNPNLLTASKFRAAKHMAGLKVYNVDGPSNNATGQSRAMIAAAARRRDSSHNELYYEEAEHERRVKKRKARLVVAVEEAFIHIQRLQAEEQQKAPGEVMDPREAAQAIFPSMARALQKYLRITRQQNYHSMESILQHLAFCITNGMTPKAFLERYLSAGPTLQYDKDRWLSTQWRLVSDEAVTNGLRDGIVFVLKCLDFSLVVNVKKIPFIILSEEFIDPKSHKFVLRLQSETSV", "values": [{"measurement": "binding", "result": "binds"}]}
